The numbers were not newly measured in patent US20090227674A1, “Combination methods fo saha and targretin for treating cancer” (priority 2005, published 2009), which cites them from elsewhere.

Each structure is given as a SMILES string.

The subject of this data set is carcinogen-induced (N-methylnitrosourea) mammary tumors. The conditions noted are these: rats; SAHA administered in diet over the 130 days of the study; cited from earlier work.

`O=C(CCCCCCC(=O)Nc1ccccc1)NO` [Vorinostat, N-Hydroxy-N′-phenyl octanediamide]: the “inhibition of development and continued growth of mammary tumors” value was “effective at inhibiting the development and continued growth”.
